The text below walks through data of publication PMC7307175.

In the assay the target is Ras-GAP SH3 domain binding protein 1 (G3BP1) (human (endogenous in HT1080)), Q13283. The assay can be described thus: co-IP. Particulars: remark: other sources report otherwise.

Results are given in words; binding and its absence hold for the method and conditions named. In cells and extracts the contact can be indirect. Some binding calls cover weakened binding; strength is not graded here.

B1: retinoic acid-inducible I (Rig-I), O95786 1-925 (protein)
chain: MTTEQRRSLQAFQDYIRKTLDPTYILSYMAPWFREEEVQYIQAEKNNKGPMEAATLFLKFLLELQEEGWFRGFLDALDHAGYSGLYEAIESWDFKKIEKLEEYRLLLKRLQPEFKTRIIPTDIISDLSECLINQECEEILQICSTKGMMAGAEKLVECLLRSDKENWPKTLKLALEKERNKFSELWIVEKGIKDVETEDLEDKMETSDIQIFYQEDPECQNLSENSCPPSEVSDTNLYSPFKPRNYQLELALPAMKGKNTIICAPTGCGKTFVSLLICEHHLKKFPQGQKGKVVFFANQIPVYEQQKSVFSKYFERHGYRVTGISGATAENVPVEQIVENNDIIILTPQILVNNLKKGTIPSLSIFTLMIFDECHNTSKQHPYNMIMFNYLDQKLGGSSGPLPQVIGLTASVGVGDAKNTDEALDYICKLCASLDASVIATVKHNLEELEQVVYKPQKFFRKVESRISDKFKYIIAQLMRDTESLAKRICKDLENLSQIQNREFGTQKYEQWIVTVQKACMVFQMPDKDEESRICKALFLYTSHLRKYNDALIISEHARMKDALDYLKDFFSNVRAAGFDEIEQDLTQRFEEKLQELESVSRDPSNENPKLEDLCFILQEEYHLNPETITILFVKTRALVDALKNWIEGNPKLSFLKPGILTGRGKTNQNTGMTLPAQKCILDAFKASGDHNILIATSVADEGIDIAQCNLVILYEYVGNVIKMIQTRGRGRARGSKCFLLTSNAGVIEKEQINMYKEKMMNDSILRLQTWDEAVFREKILHIQTHEKFIRDSQEKPKPVPDKENKKLLCRKCKALACYTADVRVIEECHYTVLGDAFKECFVSRPHPKPKQFSSFEKRAKIFCARQNCSHDWGIHVKYKTFEIPVIKIESFVVEDIATGVQTLYSKWKDFHFEKIPFDPAEMSK
As for B1, the binding entry was “binds”.

B2: double-stranded RNA (dsRNA)-dependent protein kinase R (PKR), P19525 1-551 (protein)
chain: MAGDLSAGFFMEELNTYRQKQGVVLKYQELPNSGPPHDRRFTFQVIIDGREFPEGEGRSKKEAKNAAAKLAVEILNKEKKAVSPLLLTTTNSSEGLSMGNYIGLINRIAQKKRLTVNYEQCASGVHGPEGFHYKCKMGQKEYSIGTGSTKQEAKQLAAKLAYLQILSEETSVKSDYLSSGSFATTCESQSNSLVTSTLASESSSEGDFSADTSEINSNSDSLNSSSLLMNGLRNNQRKAKRSLAPRFDLPDMKETKYTVDKRFGMDFKEIELIGSGGFGQVFKAKHRIDGKTYVIKRVKYNNEKAEREVKALAKLDHVNIVHYNGCWDGFDYDPETSDDSLESSDYDPENSKNSSRSKTKCLFIQMEFCDKGTLEQWIEKRRGEKLDKVLALELFEQITKGVDYIHSKKLIHRDLKPSNIFLVDTKQVKIGDFGLVTSLKNDGKRTRSKGTLRYMSPEQISSQDYGKEVDLYALGLILAELLHVCDTAFETSKFFTDLRDGIISDIFDKKEKTLLQKLLSKKPEDRPNTSEILRTLTVWKKSPEKNERHTC
With B2, the binding entry is given as “binds”.
